# In ChEMBL document CHEMBL4303122, “Identification of potential treatments for COVID-19 through artificial intelligence-enabled phenomic analysis of human cells infected with SARS-CoV-2” (2020):
# Whole data set: some 1,600 compounds, median “Hit score” near 0.13, cut for the highest 2% near 0.46. This is one part of the list.
# Test system: SARS-CoV-2
# Assay: Antiviral activity against SARS-CoV-2 (USA-WA1/2020 strain) measured by imaging in HRCE cells at MOI 0.4 after 96 hrs (reported as hit score from 0-1 for on-disease vs off-disease activity: scores >0.6 considered hits)
# Assay type: functional, Homo sapiens
row,Compound,Hit score
1,CCCCCCOC(=O)NC(=N)c1ccc(NCc2nc3cc(C(=O)N(CCC(=O)OCC)c4ccccn4)ccc3n2C)cc1 [DABIGATRAN ETEXILATE],0.242
2,Cc1c(-c2ccccc2)oc2c(C(=O)OCCN3CCCCC3)cccc2c1=O [FLAVOXATE],0.1693
3,C/C=C1\[C@H]2C=C(C)C[C@]1(N)c1ccc(=O)[nH]c1C2 [HUPERZINE A],0.2677
4,NC(=O)CN1CC(O)CC1=O (stereo unspecified) [OXIRACETAM],0.1694
5,CCN(CC)CCOC(=O)c1ccc(N)cc1Cl [CHLOROPROCAINE],0.06273
6,Cc1cc(C)c(CNC(=O)c2cc(-c3ccc(CN4CCOCC4)cc3)cc3c2cnn3C2CCCC2)c(=O)[nH]1,0.02871
7,CN(C)C(=O)C(CCN1CCC(O)(c2ccc(Cl)cc2)CC1)(c1ccccc1)c1ccccc1 [LOPERAMIDE],-0.01176
8,Nc1nc2[nH]cnc2c(=S)[nH]1 [THIOGUANINE],0.2388
9,Cc1cccc(C)c1NC(=O)CC12CCCN1CCC2 [PILSICAINIDE],0.07632
10,Cc1ccccc1C(=O)Nc1ccc(C(=O)N2CCCC(O)c3cc(Cl)ccc32)c(C)c1 (stereo unspecified) [TOLVAPTAN],0.1093
11,N#C[C@@H]1C[C@@H]2C[C@@H]2N1C(=O)[C@@H](N)C12CC3CC(CC(O)(C3)C1)C2.O [SAXAGLIPTIN],-0.0639
12,CCOC(=O)CCC(=O)O[C@H]1[C@H](O[C@@H]2[C@@H](C)[C@H](O[C@H]3C[C@@](C)(OC)[C@@H](O)[C@H](C)O3)[C@@H](C)C(=O)O[C@H](CC)[C@@](C)(O)[C@H](O)[C@@H](C)C(=O)[C@H](C)C[C@@]2(C)O)O[C@H](C)C[C@@H]1N(C)C [ERYTHROMYCIN ETHYLSUCCINATE],0.2512
13,Cc1cccc(C)c1NC(=O)C(C)N (stereo unspecified) [TOCAINIDE],-0.08565
14,CC(C(=O)O)c1ccc2c(c1)[nH]c1ccc(Cl)cc12 (stereo unspecified) [CARPROFEN],0.07462
15,CCCCc1cc2ccccc2c(OCCN(C)C)n1 [DIMETHISOQUIN],0.1395
16,CC(=O)O[C@H]1C[C@@]2(C)[C@@H](C[C@@H](O)[C@H]3[C@@]4(C)CC[C@@H](O)[C@@H](C)[C@@H]4CC[C@@]32C)/C1=C(\CCC=C(C)C)C(=O)O [FUSIDIC ACID],0.09513
17,CC1OC(O[C@@H]2C=C3CC[C@@H]4[C@H](CC[C@]5(C)[C@@H](c6ccc(=O)oc6)CC[C@]45O)[C@@]3(C)CC2)C(O)C(O)C1O (stereo partly specified),-0.48
18,NC(=O)c1cn(Cc2c(F)cccc2F)nn1 [RUFINAMIDE],0.1638

# A second format for 11 compounds above.
row | Compound | Hit score
4 | NC(=O)CN1CC(O)CC1=O (stereo unspecified) [OXIRACETAM] | 0.1694
7 | CN(C)C(=O)C(CCN1CCC(O)(c2ccc(Cl)cc2)CC1)(c1ccccc1)c1ccccc1 [LOPERAMIDE] | -0.01176
8 | Nc1nc2[nH]cnc2c(=S)[nH]1 [THIOGUANINE] | 0.2388
9 | Cc1cccc(C)c1NC(=O)CC12CCCN1CCC2 [PILSICAINIDE] | 0.07632
11 | N#C[C@@H]1C[C@@H]2C[C@@H]2N1C(=O)[C@@H](N)C12CC3CC(CC(O)(C3)C1)C2.O [SAXAGLIPTIN] | -0.0639
12 | CCOC(=O)CCC(=O)O[C@H]1[C@H](O[C@@H]2[C@@H](C)[C@H](O[C@H]3C[C@@](C)(OC)[C@@H](O)[C@H](C)O3)[C@@H](C)C(=O)O[C@H](CC)[C@@](C)(O)[C@H](O)[C@@H](C)C(=O)[C@H](C)C[C@@]2(C)O)O[C@H](C)C[C@@H]1N(C)C [ERYTHROMYCIN ETHYLSUCCINATE] | 0.2512
13 | Cc1cccc(C)c1NC(=O)C(C)N (stereo unspecified) [TOCAINIDE] | -0.08565
14 | CC(C(=O)O)c1ccc2c(c1)[nH]c1ccc(Cl)cc12 (stereo unspecified) [CARPROFEN] | 0.07462
16 | CC(=O)O[C@H]1C[C@@]2(C)[C@@H](C[C@@H](O)[C@H]3[C@@]4(C)CC[C@@H](O)[C@@H](C)[C@@H]4CC[C@@]32C)/C1=C(\CCC=C(C)C)C(=O)O [FUSIDIC ACID] | 0.09513
17 | CC1OC(O[C@@H]2C=C3CC[C@@H]4[C@H](CC[C@]5(C)[C@@H](c6ccc(=O)oc6)CC[C@]45O)[C@@]3(C)CC2)C(O)C(O)C1O (stereo partly specified) | -0.48
18 | NC(=O)c1cn(Cc2c(F)cccc2F)nn1 [RUFINAMIDE] | 0.1638

# The list goes on:

row,Compound,Hit score
1,OB1OCc2cc(F)ccc21 [TAVABOROLE],0.2238
2,Cc1c(O)cccc1C(=O)N[C@@H](CSc1ccccc1)[C@H](O)CN1C[C@H]2CCCC[C@H]2C[C@H]1C(=O)NC(C)(C)C,0.1621
3,CO[C@@]12[C@H](COC(N)=O)C3=C(C(=O)C(C)=C(N)C3=O)N1C[C@@H]1N[C@@H]12 [MITOMYCIN],0.1793
4,Cc1c(OCC(F)(F)F)ccnc1C[S@@+]([O-])c1nc2ccccc2[nH]1 [DEXLANSOPRAZOLE],0.1092
5,N#Cc1cc(NC(=O)C(=O)O)c(Cl)c(NC(=O)C(=O)O)c1 [LODOXAMIDE],0.07153
6,Nc1ncn([C@H]2C[C@H](O)[C@@H](CO)O2)c(=O)n1 [DECITABINE],-0.05394
7,COc1ccccc1OCC(O)CO (stereo unspecified) [GUAIFENESIN],0.2008
8,Nc1nc(CC(=O)Nc2ccc(CCNC[C@H](O)c3ccccc3)cc2)cs1 [MIRABEGRON],0.07205
9,C[C@]12CCC(=O)C[C@@H]1CC[C@@H]1[C@@H]2CC[C@]2(C)[C@@H](O)CC[C@@H]12 [STANOLONE],0.1952
10,Oc1c(Cl)cc(Cl)c(Cl)c1Cc1c(O)c(Cl)cc(Cl)c1Cl [HEXACHLOROPHENE],0.5286
11,Cc1c(N(C)C)c(=O)n(-c2ccccc2)n1C [AMINOPYRINE],0.1344
12,O=C1O[C@H]([C@@H](O)CO)C(O)=C1O [ASCORBIC ACID],0.06898
13,Cc1cc(/C=C/C#N)cc(C)c1Nc1ccnc(Nc2ccc(C#N)cc2)n1 [RILPIVIRINE],0.1167
14,OCC(O)COc1cccc2ccccc12 (stereo unspecified),0.1908
15,COc1ccc(/C=C/C(=O)Nc2ccccc2C(=O)O)cc1OC,0.2555
16,CCN(CC)CCNC(=O)c1c(C)[nH]c(/C=C2\C(=O)Nc3ccc(F)cc32)c1C [SUNITINIB],0.1025
17,Nc1ccncc1 [DALFAMPRIDINE],0.1111
18,Nc1cc(Cl)c(N=C2NCCN2)c(Cl)c1 [APRACLONIDINE],0.2069
